No constants are given. Whether binding was seen depends on the method and setting. Binding seen in cells or lysates may run through a third protein. Some binding calls cover weakened binding; strength is not graded here.
Target: full-length Nav1.5 (3xHA-Nav1.5 and 3xFLAG-Nav1.5) (human) (UniProt Q14524)
Test: co-IP; anti-HA magnetic beads; 1% digitonin lysates of co-transfected tsA201 cells (48 h) diluted in TBS, 4 °C overnight; eluate in LDS sample buffer reduced with 100 mM DTT; immunoblot

B1: α1-syntrophin (protein, UniProt Q13424 1-505)
chain: MASGRRAPRTGLLELRAGAGSGAGGERWQRVLLSLAEDVLTVSPADGDPGPEPGAPREQEPAQLNGAAEPGAGPPQLPEALLLQRRRVTVRKADAGGLGISIKGGRENKMPILISKIFKGLAADQTEALFVGDAILSVNGEDLSSATHDEAVQVLKKTGKEVVLEVKYMKDVSPYFKNSTGGTSVGWDSPPASPLQRQPSSPGPTPRNFSEAKHMSLKMAYVSKRCTPNDPEPRYLEICSADGQDTLFLRAKDEASARSWATAIQAQVNTLTPRVKDELQALLAATSTAGSQDIKQIGWLTEQLPSGGTAPTLALLTEKELLLYLSLPETREALSRPARTAPLIATRLVHSGPSKGSVPYDAELSFALRTGTRHGVDTHLFSVESPQELAAWTRQLVDGCHRAAEGVQEVSTACTWNGRPCSLSVHIDKGFTLWAAEPGAARAVLLRQPFEKLQMSSDDGASLLFLDFGGAEGEIQLDLHSCPKTIVFIIHSFLSAKVTRLGLLA
binding: binds

From paper PMC13333962
